Record: PubChem BioAssay AID504774 (Drosophila RNAi Screening Center, 2011)

Assay: 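Fly genes whose loss alters survival after alkylation damage to DNA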 (primary screen)
Cell system: Drosophila Kc167 cells
Reagent: long dsRNA against Drosophila genes, about 0.25 µg dsRNA per well
Time to read-out: about 6 days: 3 days knock-down, then 3 days with or without MMS
Conditions: methyl methanesulphonate 0.004% (w/v) for 3 days after knock-down
Measured: 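Viability in wells given MMS, read as ATP luminescence, normalised by quantiles plate by plate and averaged across replicates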
Reading the numbers: mean viability with MMS and viability with MMS: higher = more surviving cells after MMS
In all, the deposit lists about 23,000 reagents; this is an unselected part of those that have a named target and a result. 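Values are quantile-normalised luminescence on an arbitrary scale; higher means more cells surviving MMS.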 Names joined by + are all predicted targets of the reagent. Not all columns of the deposit are shown.

The opening 5 records, ahead of the listing:
| predicted target | DRSC id | mean viability with MMS | viability with MMS, replicate 1 |
| --- | --- | --- | --- |
| CG9205 | DRSC08642 | 3.51e6 | 4.02e6 |
| CG31516 | DRSC11994 | 3.56e6 | 4.02e6 |
| NetA (Netrin-A) | DRSC20261 | 3.52e6 | 3.97e6 |
| CG12917 | DRSC06231 | 3.70e6 | 4.13e6 |
| bwa (brain washing) | DRSC01749 | 3.48e6 | 3.96e6 |

Main list, from the start:
| predicted target | DRSC id | mean viability with MMS | viability with MMS, replicate 1 |
| --- | --- | --- | --- |
| CG9205 | DRSC08642 | 3.51e6 | 4.02e6 |
| CG31516 | DRSC11994 | 3.56e6 | 4.02e6 |
| NetA (Netrin-A) | DRSC20261 | 3.52e6 | 3.97e6 |
| CG12917 | DRSC06231 | 3.70e6 | 4.13e6 |
| bwa (brain washing) | DRSC01749 | 3.48e6 | 3.96e6 |
| bwa (brain washing) | DRSC02310 | 3.60e6 | 4.00e6 |
| Tim10 + CG42497 | DRSC04664 | 3.38e6 | 3.70e6 |
| Ugt37E1 (UDP-glycosyltransferase family 37 member E1) | DRSC02248 | 3.63e6 | 4.04e6 |
| CG12814 | DRSC14552 | 3.70e6 | 4.05e6 |
| CG12814 | DRSC14553 | 3.58e6 | 3.96e6 |
| CNMaR (CNMamide Receptor) | DRSC08992 | 3.46e6 | 3.89e6 |
| CNMaR (CNMamide Receptor) | DRSC10224 | 3.64e6 | 4.07e6 |
| Pex7 (Peroxin 7) | DRSC10651 | 3.62e6 | 4.24e6 |
| Prdm13 (PR/SET domain 13) | DRSC09970 | 3.57e6 | 4.10e6 |
| Fgop2 (Fibroblast growth factor receptor 1 oncogene partner 2) | DRSC02016 | 3.50e6 | 4.04e6 |
| lbl (ladybird late) | DRSC16986 | 3.73e6 | 4.16e6 |
| CG14434 | DRSC17927 | 3.79e6 | 4.41e6 |
| CG11050 | DRSC02125 | 3.04e6 | 3.49e6 |
| CG7785 | DRSC16311 | 3.50e6 | 3.90e6 |
| AstC-R1 (Allatostatin C receptor 1) | DRSC10799 | 3.40e6 | 3.77e6 |
| cher (cheerio) | DRSC16924 | 3.73e6 | 4.20e6 |
| DNAlig4 (DNA ligase 4) | DRSC19436 | 3.45e6 | 3.86e6 |
| CG9095 | DRSC20150 | 3.46e6 | 3.92e6 |
| CG5773 | DRSC06955 | 3.60e6 | 4.01e6 |
| CG34007 | DRSC01790 | 3.58e6 | 4.00e6 |
| lwr (lesswright) | DRSC00828 | 3.63e6 | 3.90e6 |
| Rrp1 (Recombination repair protein 1) | DRSC00784 | 3.66e6 | 4.25e6 |
| CG9981 | DRSC20225 | 3.47e6 | 3.89e6 |
| Phs (Phaser) | DRSC10827 | 3.58e6 | 4.03e6 |
| Boh1 (Buddy of Hmr 1) | DRSC14487 | 3.61e6 | 3.97e6 |
| CG1227 | DRSC12534 | 3.43e6 | 3.91e6 |
| CG13984 | DRSC02316 | 3.55e6 | 3.91e6 |
| dos | DRSC07992 | 3.07e6 | 3.63e6 |
| dos | DRSC08713 | 3.47e6 | 3.92e6 |
| dos | DRSC23285 | 2.66e6 | 2.72e6 |
| RluA-2 (RluA pseudouridine synthase 2) | DRSC02939 | 3.63e6 | 4.18e6 |
| Semp1 (Seminal metalloprotease-1) | DRSC01874 | 3.66e6 | 4.11e6 |
| Ogg1 (8-oxoguanine DNA glycosylase) | DRSC17738 | 3.35e6 | 4.19e6 |
| CG4972 | DRSC02798 | 3.66e6 | 3.99e6 |
| Hipk (Homeodomain interacting protein kinase) | DRSC07885 | 3.29e6 | 3.66e6 |
| Hipk (Homeodomain interacting protein kinase) | DRSC08507 | 3.16e6 | 3.65e6 |
| Hipk (Homeodomain interacting protein kinase) | DRSC23155 | 3.31e6 | 3.64e6 |
| Tsp42El (Tetraspanin 42El) | DRSC06186 | 3.59e6 | 3.99e6 |
| CG3430 | DRSC02713 | 3.58e6 | 3.95e6 |
| Ranbp21 | DRSC19447 | 3.37e6 | 3.76e6 |
| CG5098 | DRSC06915 | 3.45e6 | 3.83e6 |
